These are yes or no findings as the source states them, for the method shown. Some results given as binding are weak or reduced against the parent protein; the word gives no strength. Where a sequence is shown, tags or fusion partners need not be part of it.
Legend:
[1] = target: NIM366-594 bait (C-terminal portion of NIM1, amino acids 366-594, LexA fusion) (Arabidopsis) (UniProt P0A7C2+P93002); assay: yeast two-hybrid screen (LexA bait, B42 prey library; Leu2 and LacZ reporters)
[2] = target: full-length NIM1 bait (full length Arabidopsis NIM1 fused to the LexA DNA binding domain in pEG202) (Arabidopsis) (UniProt P0A7C2+P93002); assay: as above

The chains behind the UniProt entries cited, without tags or fusion partners. Where a name states a change or a piece, a line headed by the entry shows the natural chain unless it says otherwise.
UniProt P0A7C2: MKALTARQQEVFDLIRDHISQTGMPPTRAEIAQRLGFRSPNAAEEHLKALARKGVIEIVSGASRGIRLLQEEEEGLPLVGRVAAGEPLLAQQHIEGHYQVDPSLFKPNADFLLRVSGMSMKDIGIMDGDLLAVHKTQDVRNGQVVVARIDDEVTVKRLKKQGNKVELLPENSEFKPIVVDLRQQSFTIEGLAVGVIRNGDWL
UniProt P93002: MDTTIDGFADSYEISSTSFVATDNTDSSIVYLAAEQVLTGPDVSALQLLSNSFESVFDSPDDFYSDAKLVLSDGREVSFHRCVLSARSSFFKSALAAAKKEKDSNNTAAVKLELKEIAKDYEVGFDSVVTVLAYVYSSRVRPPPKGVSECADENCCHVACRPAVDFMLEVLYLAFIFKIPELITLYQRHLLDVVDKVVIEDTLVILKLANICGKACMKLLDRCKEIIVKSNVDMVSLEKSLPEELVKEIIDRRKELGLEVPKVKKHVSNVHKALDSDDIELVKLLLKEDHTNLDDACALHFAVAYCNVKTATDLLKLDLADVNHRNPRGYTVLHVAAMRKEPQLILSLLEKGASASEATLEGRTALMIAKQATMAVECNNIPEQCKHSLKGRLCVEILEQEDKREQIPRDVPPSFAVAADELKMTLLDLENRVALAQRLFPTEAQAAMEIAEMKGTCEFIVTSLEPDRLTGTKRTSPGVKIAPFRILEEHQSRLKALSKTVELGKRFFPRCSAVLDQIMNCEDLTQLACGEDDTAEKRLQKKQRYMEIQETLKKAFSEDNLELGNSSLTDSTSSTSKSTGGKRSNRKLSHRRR

B1: NI16 clone (Arabidopsis NI16 cDNA clone from the pJG4-5 library, fused to the B42 transcriptional activation domain) (other, not shown: large carriers)
chain: MNNSLKKEERVEEDNGKSDGNRGKPSTEVVRTVTEEEVDEFFKILRRVHVATRTVAKVNGGVAEGELPSKKRKRSQNLGLRNSLDCNGVRDGEFDEINRVGLQGLGLDLNCKPEPDSVSLSL
notes: also called NI16 protein
binding [1]: binds | binding [2]: binds

Reference: patent US20040154051A1 (SYNGENTA PARTICIPATIONS, published 2004)
